The list shows a part of the results. Residues, ends and D or L forms follow the SMILES beside them. *: point of attachment. Cbz = O=C(OCc1ccccc1)*
Assays:
Experiment in all cases: log2 fold change, soluble protein after heating vs DMSO (PISA); higher = thermal stabilisation; K562 cells, 10 uM, 30 min; active = over 0.2 and 3.5 SD of the protein, either way, in both replicates (recomputed)
IRAK-1-4 Inhibitor I = compound: C1COCCN1CCN2C3=CC=CC=C3N=C2NC(=O)C4=CC(=CC=C4)[N+](=O)[O-] [IRAK-1-4 Inhibitor I]
In short: (§1)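 K562 cells at 2×10^6 cells/mL were given 10 μM compound for 30 min. Aliquots then went through 3 min of heating across 48°C-58°C, were pooled, and were extracted in PBS with 0.5% NP-40 at 4°C, and the supernatant after 21,000xg for 90 min was quantified by TMTpro 16plex LC-MS/MS with channel sums equalised. Thermal stability relative to control samples, from duplicates, is given as log2 fold change.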

Sequences of proteins named here, by UniProt entry; tags and fusion partners are left off. A change or cut given only in a name is not applied to a line headed by its entry.
UniProt Q9NUM4, whole entry, looked up: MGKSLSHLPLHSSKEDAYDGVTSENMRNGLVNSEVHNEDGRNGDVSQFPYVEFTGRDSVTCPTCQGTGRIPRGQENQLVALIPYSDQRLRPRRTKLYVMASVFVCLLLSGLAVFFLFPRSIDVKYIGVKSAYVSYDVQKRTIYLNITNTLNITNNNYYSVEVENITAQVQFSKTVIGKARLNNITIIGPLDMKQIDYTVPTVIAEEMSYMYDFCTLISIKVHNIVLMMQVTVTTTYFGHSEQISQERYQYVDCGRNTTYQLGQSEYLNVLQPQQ
UniProt Q5BJH2: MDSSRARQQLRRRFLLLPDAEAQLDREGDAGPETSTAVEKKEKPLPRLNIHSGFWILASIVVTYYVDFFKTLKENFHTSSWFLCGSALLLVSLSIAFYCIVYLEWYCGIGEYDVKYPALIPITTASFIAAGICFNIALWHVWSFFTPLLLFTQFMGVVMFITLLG
UniProt Q9BZW5, whole entry, looked up: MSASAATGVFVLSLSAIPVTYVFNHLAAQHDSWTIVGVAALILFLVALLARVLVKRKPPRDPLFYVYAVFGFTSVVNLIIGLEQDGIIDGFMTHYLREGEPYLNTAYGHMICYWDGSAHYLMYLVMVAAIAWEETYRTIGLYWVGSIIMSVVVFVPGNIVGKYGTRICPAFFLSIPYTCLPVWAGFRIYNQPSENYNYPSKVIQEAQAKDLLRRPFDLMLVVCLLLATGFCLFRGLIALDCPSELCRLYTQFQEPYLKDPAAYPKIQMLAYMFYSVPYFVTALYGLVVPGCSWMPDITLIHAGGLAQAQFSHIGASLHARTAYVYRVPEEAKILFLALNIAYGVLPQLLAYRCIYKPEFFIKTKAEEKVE
UniProt O95807: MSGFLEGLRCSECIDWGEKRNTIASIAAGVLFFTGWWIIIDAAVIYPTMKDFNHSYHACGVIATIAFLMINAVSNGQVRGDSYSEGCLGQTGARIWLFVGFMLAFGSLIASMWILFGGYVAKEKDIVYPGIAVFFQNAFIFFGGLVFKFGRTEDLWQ
UniProt Q96I45: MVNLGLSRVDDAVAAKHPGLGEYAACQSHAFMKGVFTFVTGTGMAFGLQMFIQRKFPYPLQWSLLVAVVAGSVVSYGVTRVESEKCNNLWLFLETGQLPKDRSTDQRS
UniProt Q96AN5: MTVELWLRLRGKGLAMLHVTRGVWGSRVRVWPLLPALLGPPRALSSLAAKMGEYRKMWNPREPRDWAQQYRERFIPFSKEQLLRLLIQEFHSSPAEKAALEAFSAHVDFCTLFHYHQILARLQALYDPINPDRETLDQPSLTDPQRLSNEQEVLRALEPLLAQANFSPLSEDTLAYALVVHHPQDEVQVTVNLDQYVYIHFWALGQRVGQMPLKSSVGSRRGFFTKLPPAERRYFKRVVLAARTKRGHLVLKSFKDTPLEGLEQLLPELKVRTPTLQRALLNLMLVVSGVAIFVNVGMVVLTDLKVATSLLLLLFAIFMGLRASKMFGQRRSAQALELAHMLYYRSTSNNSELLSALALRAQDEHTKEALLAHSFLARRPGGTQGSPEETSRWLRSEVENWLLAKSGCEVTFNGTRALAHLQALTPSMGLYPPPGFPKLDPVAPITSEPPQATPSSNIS
UniProt Q9Y3Q3: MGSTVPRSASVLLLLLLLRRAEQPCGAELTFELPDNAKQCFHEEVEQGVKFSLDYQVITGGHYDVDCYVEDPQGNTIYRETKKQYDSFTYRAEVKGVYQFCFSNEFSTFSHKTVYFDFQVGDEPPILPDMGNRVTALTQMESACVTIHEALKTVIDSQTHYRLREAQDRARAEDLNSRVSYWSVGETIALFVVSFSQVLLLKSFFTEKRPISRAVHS
UniProt Q96K49: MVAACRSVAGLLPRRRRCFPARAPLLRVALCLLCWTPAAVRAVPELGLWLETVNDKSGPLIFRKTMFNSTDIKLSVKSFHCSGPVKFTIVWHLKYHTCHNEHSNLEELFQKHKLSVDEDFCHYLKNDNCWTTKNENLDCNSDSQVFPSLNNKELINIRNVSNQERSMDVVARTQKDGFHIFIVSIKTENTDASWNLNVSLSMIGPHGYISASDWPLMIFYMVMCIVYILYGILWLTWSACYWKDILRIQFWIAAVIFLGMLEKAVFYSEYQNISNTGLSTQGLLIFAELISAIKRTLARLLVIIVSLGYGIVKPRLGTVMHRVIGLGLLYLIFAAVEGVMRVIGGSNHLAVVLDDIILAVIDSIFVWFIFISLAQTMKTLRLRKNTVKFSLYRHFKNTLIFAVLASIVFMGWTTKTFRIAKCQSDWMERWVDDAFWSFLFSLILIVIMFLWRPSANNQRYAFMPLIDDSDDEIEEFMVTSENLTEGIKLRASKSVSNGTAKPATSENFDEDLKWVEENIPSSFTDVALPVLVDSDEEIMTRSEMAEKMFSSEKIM
UniProt P62328: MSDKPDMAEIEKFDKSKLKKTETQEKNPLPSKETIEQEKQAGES
UniProt Q9BUB7: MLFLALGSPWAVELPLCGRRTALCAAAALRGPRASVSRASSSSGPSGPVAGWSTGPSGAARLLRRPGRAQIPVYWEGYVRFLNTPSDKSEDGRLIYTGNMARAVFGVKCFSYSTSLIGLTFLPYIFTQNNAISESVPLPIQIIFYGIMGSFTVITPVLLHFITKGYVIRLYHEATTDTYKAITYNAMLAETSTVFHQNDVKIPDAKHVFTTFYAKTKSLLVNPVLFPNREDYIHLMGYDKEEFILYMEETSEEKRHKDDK
UniProt Q9P2C4: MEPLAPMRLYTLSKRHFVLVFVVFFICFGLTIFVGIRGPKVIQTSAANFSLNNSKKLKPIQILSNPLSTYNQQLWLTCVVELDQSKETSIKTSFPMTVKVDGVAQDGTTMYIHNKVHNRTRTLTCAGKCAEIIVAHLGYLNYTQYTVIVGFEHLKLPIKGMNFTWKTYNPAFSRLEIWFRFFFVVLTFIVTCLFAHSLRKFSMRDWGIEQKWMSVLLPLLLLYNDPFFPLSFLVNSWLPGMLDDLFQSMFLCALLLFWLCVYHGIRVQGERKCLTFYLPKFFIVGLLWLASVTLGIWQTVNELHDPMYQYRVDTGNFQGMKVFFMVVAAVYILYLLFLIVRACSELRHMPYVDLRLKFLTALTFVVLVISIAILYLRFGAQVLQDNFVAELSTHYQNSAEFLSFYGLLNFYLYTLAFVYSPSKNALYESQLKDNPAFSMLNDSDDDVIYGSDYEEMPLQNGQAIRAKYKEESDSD
UniProt O95379: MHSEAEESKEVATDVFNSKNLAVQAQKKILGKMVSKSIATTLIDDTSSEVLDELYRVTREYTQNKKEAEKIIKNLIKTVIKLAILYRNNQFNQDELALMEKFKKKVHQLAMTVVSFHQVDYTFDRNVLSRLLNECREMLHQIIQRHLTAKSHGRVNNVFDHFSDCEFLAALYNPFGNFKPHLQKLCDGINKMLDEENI
UniProt Q6PL24: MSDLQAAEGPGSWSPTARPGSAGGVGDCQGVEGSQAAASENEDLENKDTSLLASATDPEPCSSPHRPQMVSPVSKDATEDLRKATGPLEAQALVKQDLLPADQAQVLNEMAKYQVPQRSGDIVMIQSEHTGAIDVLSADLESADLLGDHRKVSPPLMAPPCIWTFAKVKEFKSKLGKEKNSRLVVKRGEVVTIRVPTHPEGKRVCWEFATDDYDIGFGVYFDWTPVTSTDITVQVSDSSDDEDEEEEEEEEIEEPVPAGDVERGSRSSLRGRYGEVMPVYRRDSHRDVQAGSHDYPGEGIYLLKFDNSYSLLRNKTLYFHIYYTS
UniProt Q9NX61: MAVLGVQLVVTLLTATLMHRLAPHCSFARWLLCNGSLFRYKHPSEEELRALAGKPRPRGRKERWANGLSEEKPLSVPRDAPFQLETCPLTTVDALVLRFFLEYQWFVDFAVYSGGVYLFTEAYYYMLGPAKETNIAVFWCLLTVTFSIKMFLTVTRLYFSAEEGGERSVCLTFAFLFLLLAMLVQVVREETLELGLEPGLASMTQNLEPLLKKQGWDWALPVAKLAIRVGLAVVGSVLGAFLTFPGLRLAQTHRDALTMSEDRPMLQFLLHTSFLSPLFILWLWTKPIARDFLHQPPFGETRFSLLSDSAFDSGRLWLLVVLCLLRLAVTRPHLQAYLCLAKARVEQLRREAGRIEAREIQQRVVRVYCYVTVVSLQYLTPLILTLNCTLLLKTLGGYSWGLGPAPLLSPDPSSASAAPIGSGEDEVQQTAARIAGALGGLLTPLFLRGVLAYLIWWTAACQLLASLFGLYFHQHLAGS
UniProt Q6UW68: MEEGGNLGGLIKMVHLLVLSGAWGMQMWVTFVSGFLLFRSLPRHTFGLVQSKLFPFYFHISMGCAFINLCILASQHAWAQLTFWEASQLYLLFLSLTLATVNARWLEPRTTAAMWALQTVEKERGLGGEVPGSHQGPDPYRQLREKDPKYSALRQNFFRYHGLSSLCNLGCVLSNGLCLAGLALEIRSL
UniProt Q9H6X4: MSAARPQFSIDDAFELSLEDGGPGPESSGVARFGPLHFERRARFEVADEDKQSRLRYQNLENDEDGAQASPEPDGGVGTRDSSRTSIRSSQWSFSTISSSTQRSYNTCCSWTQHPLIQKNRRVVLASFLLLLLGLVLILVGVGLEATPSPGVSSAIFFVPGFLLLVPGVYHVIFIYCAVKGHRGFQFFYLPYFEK
UniProt Q9BXS4: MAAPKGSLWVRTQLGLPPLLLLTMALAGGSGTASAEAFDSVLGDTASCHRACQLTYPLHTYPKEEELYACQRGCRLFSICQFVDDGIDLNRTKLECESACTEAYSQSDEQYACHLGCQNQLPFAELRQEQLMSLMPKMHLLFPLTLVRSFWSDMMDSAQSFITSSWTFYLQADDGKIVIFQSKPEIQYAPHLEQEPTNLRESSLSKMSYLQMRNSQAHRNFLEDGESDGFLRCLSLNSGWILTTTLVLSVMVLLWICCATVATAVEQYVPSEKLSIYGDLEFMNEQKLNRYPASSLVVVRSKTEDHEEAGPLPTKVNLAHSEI
UniProt Q9NX78: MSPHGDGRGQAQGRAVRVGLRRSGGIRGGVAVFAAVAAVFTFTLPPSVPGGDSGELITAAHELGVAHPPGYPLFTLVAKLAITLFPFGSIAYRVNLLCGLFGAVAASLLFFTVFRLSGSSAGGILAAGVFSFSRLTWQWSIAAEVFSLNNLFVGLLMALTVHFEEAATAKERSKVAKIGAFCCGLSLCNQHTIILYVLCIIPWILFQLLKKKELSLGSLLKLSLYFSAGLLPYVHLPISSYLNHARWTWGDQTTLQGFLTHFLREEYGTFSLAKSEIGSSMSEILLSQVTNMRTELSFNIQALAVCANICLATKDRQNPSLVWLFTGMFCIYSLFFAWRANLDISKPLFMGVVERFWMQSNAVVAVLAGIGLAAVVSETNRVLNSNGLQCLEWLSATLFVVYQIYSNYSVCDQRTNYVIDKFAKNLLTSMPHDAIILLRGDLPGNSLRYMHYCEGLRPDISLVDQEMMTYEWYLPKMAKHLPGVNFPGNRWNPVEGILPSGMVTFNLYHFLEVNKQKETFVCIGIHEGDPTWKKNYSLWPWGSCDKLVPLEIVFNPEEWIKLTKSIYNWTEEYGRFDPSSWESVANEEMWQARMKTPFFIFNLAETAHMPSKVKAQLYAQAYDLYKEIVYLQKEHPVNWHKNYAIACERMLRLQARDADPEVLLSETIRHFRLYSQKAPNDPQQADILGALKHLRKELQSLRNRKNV
UniProt Q9BVK8: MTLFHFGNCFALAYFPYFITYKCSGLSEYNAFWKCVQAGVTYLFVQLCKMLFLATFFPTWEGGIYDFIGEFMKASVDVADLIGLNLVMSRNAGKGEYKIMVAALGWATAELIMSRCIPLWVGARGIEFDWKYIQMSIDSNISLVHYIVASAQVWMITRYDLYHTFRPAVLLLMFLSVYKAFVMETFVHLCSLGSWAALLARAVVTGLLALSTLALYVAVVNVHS
UniProt Q969X1: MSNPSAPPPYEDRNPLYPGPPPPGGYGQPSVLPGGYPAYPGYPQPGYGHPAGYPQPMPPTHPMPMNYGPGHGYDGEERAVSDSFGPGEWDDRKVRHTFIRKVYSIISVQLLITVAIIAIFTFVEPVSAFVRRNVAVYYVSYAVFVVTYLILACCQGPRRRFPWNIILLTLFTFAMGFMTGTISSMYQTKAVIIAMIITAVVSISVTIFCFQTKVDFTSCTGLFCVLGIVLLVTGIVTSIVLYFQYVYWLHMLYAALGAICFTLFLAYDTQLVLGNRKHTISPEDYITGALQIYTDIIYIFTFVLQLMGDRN

ibrutinib = compound: C=CC(=O)N1CCC[C@@H](n2nc(-c3ccc(Oc4ccccc4)cc3)c3c(N)ncnc32)C1 [ibrutinib]
In short: as §1

[1] = compound: CC(=O)c1cnc2ccc(-c3cc(Cl)c(O)c(Cl)c3)nc2c1N[C@H]1CC[C@H](CN(C)C)CC1
In short: as §1

[2] = compound: CC(C)(O)CC(=O)NCCn1ccc2ncnc(Nc3ccc(Oc4cccc(C(F)(F)F)c4)c(Cl)c3)c21
In short: as §1

[3] = compound: CC(C)C1=C2N=C(C=C(N2N=C1)NCC3=CC=CC=C3)NCCCCCCN
In short: as §1

pinometostat = compound: CC(C)N(C[C@H]1O[C@@H](n2cnc3c(N)ncnc32)[C@H](O)[C@@H]1O)[C@H]1C[C@@H](CCc2nc3cc(C(C)(C)C)ccc3[nH]2)C1 [pinometostat]
In short: as §1

[4] = compound: CC1=C(C2=C(C=C1)C(=O)C3=CC=CC=C3N2CCCN)C
In short: as §1

[5] = compound: CC1=C(C=C(C=C1)NC(=O)C2=CC(=CC=C2)C(C)(C)C#N)NC3=CC4=C(C=C3)N=CN(C4=O)C
In short: as §1

[6] = compound: CC1=CC=C(C=C1)SC2=C3C=C(SC3=CN=C2)C(=O)N
In short: as §1

[7] = compound: CC1=NC(=CC=C1)C2=C(N=C(N2)C(C)(C)C)C3=CC4=NC=CN=C4C=C3
In short: as §1

Nexturastat A = compound: CCCCN(Cc1ccc(C(=O)NO)cc1)C(=O)Nc1ccccc1 [Nexturastat A]
In short: as §1

vemurafenib = compound: CCCS(=O)(=O)Nc1ccc(F)c(C(=O)c2c[nH]c3ncc(-c4ccc(Cl)cc4)cc23)c1F [vemurafenib]
In short: as §1

[8] = compound: CCCS(=O)(=O)Nc1ccc(F)c(C(=O)c2c[nH]c3ncc(Cl)cc23)c1F
In short: as §1

[9] = compound: CCCc1cc(C)[nH]c(=O)c1CNC(=O)c1cc(-c2ccnc(N3CCN(C)CC3)c2)cc2c1cnn2C(C)C
In short: as §1

givinostat = compound: CCN(CC)Cc1ccc2cc(COC(=O)Nc3ccc(C(=O)NO)cc3)ccc2c1 [givinostat]
In short: as §1

barasertib = compound: CCN(CCCOc1ccc2c(Nc3cc(CC(=O)Nc4cccc(F)c4)[nH]n3)ncnc2c1)CCOP(=O)(O)O [barasertib]
In short: as §1

ralimetinib = compound: CC(C)(C)Cn1c(N)nc2ccc(-c3[nH]c(C(C)(C)C)nc3-c3ccc(F)cc3)nc21 [ralimetinib]
In short: as §1

[10] = compound: CC(C)C[C@@H](C=O)NC(=O)[C@H](CC(C)C)NC(=O)[C@H](CC(C)C)NC(=O)OCc1ccccc1
In short: as §1

[11] = compound: CC1=C(C=C(C=C1)NC(=O)C2=CC(=CC=C2)N(C)C)NC(=O)C3=CC=C(C=C3)O
In short: as §1

[12] = compound: CC1=C(C(CC(=O)N1)C2=CC=C(C=C2)C(F)(F)F)C(=O)NC3=C(C=C4C(=C3)C=NN4)F
In short: as §1

Measured: log2 fold change

TMEM106B (UniProt Q9NUM4)
inactive: IRAK-1-4 Inhibitor I 0.056 | ibrutinib 0.029 | [1] 0.043 | [2] 0.043 | [3] -0.092 | pinometostat 0.085 | [4] -0.027 | [5] -0.029 | [6] 0.161 | [7] 0.019 | Nexturastat A -0.11 | vemurafenib -0.163 | [8] -0.081 | [9] -0.023 | givinostat 0.052 | barasertib -0.039

TMEM128 (UniProt Q5BJH2)
active: [1] 0.45
inactive: IRAK-1-4 Inhibitor I -0.046 | ibrutinib -0.025 | ralimetinib -0.036 | [2] -0.051 | [3] 0.028 | [10] 0.108 | pinometostat 0.122 | [4] 0 | [5] -0.023 | [11] -0.006 | [6] -0.005 | [7] -0.054 | Nexturastat A 0.021 | vemurafenib -0.279 | [8] 0.052 | givinostat 0.249 | barasertib -0.004

TM6SF1 (UniProt Q9BZW5)
inactive: IRAK-1-4 Inhibitor I 0.069 | [1] -0.055 | ralimetinib -0.03 | [2] -0.012 | [3] 0.075 | [10] 0.019 | pinometostat -0.011 | [12] 0.033 | [4] -0.044 | [5] -0.03 | [11] -0.006 | [6] -0.03 | [7] -0.074 | Nexturastat A 0.102 | vemurafenib -0.028 | [8] 0.031 | [9] -0.033 | givinostat -0.021

TMEM50A (UniProt O95807)
inactive: IRAK-1-4 Inhibitor I 0.161 | ibrutinib -0.148 | [1] -0.226 | [2] -0.121 | pinometostat 0.03 | [12] 0.081 | [4] -0.093 | [6] 0.068 | [7] -0.142 | Nexturastat A -0.009 | vemurafenib 0.026 | [8] -0.026 | barasertib -0.241

TMEM141 (UniProt Q96I45)
inactive: IRAK-1-4 Inhibitor I 0.036 | ibrutinib -0.027 | [1] -0.023 | [3] -0.066 | pinometostat -0.046 | [12] -0.042 | [4] 0.047 | [5] 0.011 | [6] 0.001 | [7] 0.088 | vemurafenib -0.037 | [8] 0.017 | [9] -0.028 | givinostat -0.011 | barasertib 0.088

TMEM143 (UniProt Q96AN5)
inactive: IRAK-1-4 Inhibitor I -0.094 | [1] -0.035 | [3] 0.097 | pinometostat 0.205 | [4] 0.129 | [5] 0.219 | [7] -0.009 | [9] -0.136 | givinostat -0.005

TMED3 (UniProt Q9Y3Q3)
inactive: IRAK-1-4 Inhibitor I 0.02 | ibrutinib 0.016 | [1] -0.07 | [2] -0.056 | [3] -0.139 | pinometostat -0.037 | [12] 0.011 | [4] 0.086 | [5] -0.013 | [6] 0.024 | [7] -0.008 | Nexturastat A 0.027 | vemurafenib -0.054 | [8] 0.037 | [9] -0.044 | givinostat -0.038 | barasertib -0.015

Reprinted from the entries so far (2 entries):
TM6SF1 (UniProt Q9BZW5)
inactive: IRAK-1-4 Inhibitor I 0.069 | [1] -0.055 | ralimetinib -0.03 | [2] -0.012 | [3] 0.075 | [10] 0.019 | pinometostat -0.011 | [12] 0.033 | [4] -0.044 | [5] -0.03 | [11] -0.006 | [6] -0.03 | [7] -0.074 | Nexturastat A 0.102 | vemurafenib -0.028 | [8] 0.031 | [9] -0.033 | givinostat -0.021

TMEM50A (UniProt O95807)
inactive: IRAK-1-4 Inhibitor I 0.161 | ibrutinib -0.148 | [1] -0.226 | [2] -0.121 | pinometostat 0.03 | [12] 0.081 | [4] -0.093 | [6] 0.068 | [7] -0.142 | Nexturastat A -0.009 | vemurafenib 0.026 | [8] -0.026 | barasertib -0.241

Next entries follow:

TMEM87B (UniProt Q96K49)
active: [3] -0.39
inactive: IRAK-1-4 Inhibitor I 0.139 | ibrutinib -0.084 | [1] -0.046 | ralimetinib -0.086 | [2] -0.204 | [10] -0.007 | pinometostat 0.065 | [4] 0.029 | [5] -0.018 | [11] -0.013 | [6] 0.112 | [7] -0.008 | Nexturastat A -0.059 | vemurafenib -0.048 | [8] -0.028 | [9] 0.008 | givinostat -0.063 | barasertib 0.048

TMSB4X (UniProt P62328)
inactive: IRAK-1-4 Inhibitor I 0.322 | ibrutinib 0.46 | [1] -0.032 | ralimetinib 0.06 | [2] 0.162 | [10] 0.77 | pinometostat 0.03 | [12] 0.45 | [11] 0.073 | [6] -0.231 | [7] -0.846 | Nexturastat A 0.585 | vemurafenib 0.013 | [8] -0.396 | [9] -1.2 | barasertib 0.157

TMEM70 (UniProt Q9BUB7)
inactive: IRAK-1-4 Inhibitor I 0.07 | ibrutinib 0.068 | [1] -0.034 | ralimetinib -0.044 | [2] -0.095 | [3] 0.13 | [10] 0.028 | pinometostat 0.019 | [4] 0.086 | [5] 0.006 | [11] 0.051 | [6] 0.051 | [7] 0.005 | Nexturastat A -0.012 | vemurafenib -0.011 | [8] 0.029 | [9] -0.053 | givinostat -0.164 | barasertib 0.047

TMEM181 (UniProt Q9P2C4)
inactive: IRAK-1-4 Inhibitor I -0.106 | ibrutinib -0.048 | [1] 0.184 | ralimetinib -0.008 | [3] 0.077 | [10] 0.013 | pinometostat -0.071 | [4] -0.075 | [11] 0.081 | [6] 0.05 | [7] -0.082 | vemurafenib 0.049 | [8] -0.011 | [9] 0.115 | givinostat -0.032 | barasertib -0.004

TNFAIP8 isoform 4 (UniProt O95379)
inactive: IRAK-1-4 Inhibitor I -0.018 | ibrutinib -0.036 | [1] -0.036 | ralimetinib 0 | [2] -0.037 | [3] -0.075 | [10] -0.047 | pinometostat -0.065 | [4] -0.037 | [5] -0.019 | [11] -0.013 | [6] -0.021 | [7] 0.051 | Nexturastat A -0.102 | vemurafenib 0.014 | [8] -0.102 | [9] -0.052 | givinostat 0.003 | barasertib 0.065

TMED8 (UniProt Q6PL24)
inactive: IRAK-1-4 Inhibitor I -0.103 | ibrutinib 0.018 | [1] -0.128 | ralimetinib 0.075 | [3] -0.04 | [10] 0.029 | pinometostat -0.084 | [12] 0.182 | [4] -0.04 | [11] -0.101 | [6] 0.006 | [7] 0.164 | vemurafenib 0.004 | [8] -0.006 | [9] 0.086 | givinostat 0.084 | barasertib 0.113

TMTC4 isoform 3 (UniProt Q5T4D3)
inactive: IRAK-1-4 Inhibitor I 0.091 | ibrutinib -0.113 | pinometostat -0.06 | [7] 0.021 | barasertib -0.087

TMEM161A (UniProt Q9NX61)
inactive: IRAK-1-4 Inhibitor I 0.03 | ibrutinib -0.015 | [1] 0.045 | ralimetinib -0.059 | [2] -0.17 | [10] -0.045 | pinometostat 0.121 | [4] 0.071 | [5] -0.045 | [11] 0.12 | [6] 0.014 | [7] -0.012 | Nexturastat A -0.059 | vemurafenib 0.045 | [8] 0.225 | [9] -0.048 | givinostat 0.024 | barasertib -0.017
active: [3] -0.395

TMEM205 (UniProt Q6UW68)
inactive: IRAK-1-4 Inhibitor I 0.05 | ibrutinib 0.001 | ralimetinib -0.067 | [2] -0.14 | [3] 0.024 | [10] -0.124 | pinometostat 0.033 | [12] 0.144 | [4] 0.036 | [5] -0.18 | [11] 0.023 | [6] -0.105 | [7] -0.119 | Nexturastat A -0.146 | vemurafenib 0 | [8] -0.147 | [9] -0.043 | givinostat -0.006 | barasertib 0.056

TMEM134 (UniProt Q9H6X4)
inactive: IRAK-1-4 Inhibitor I -0.003 | ibrutinib 0.009 | [1] -0.058 | ralimetinib -0.028 | [2] -0.091 | [3] 0.143 | [10] 0.073 | pinometostat -0.126 | [11] 0.126 | [7] -0.003 | Nexturastat A -0.039 | [9] -0.045 | givinostat 0.083 | barasertib -0.026

TMEM59 (UniProt Q9BXS4)
inactive: IRAK-1-4 Inhibitor I -0.078 | [1] -0.144 | ralimetinib 0.027 | [3] 0.315 | [10] 0.272 | pinometostat -0.151 | [12] 0.009 | [4] -0.071 | [11] -0.282 | [6] -0.041 | [7] 0.003 | [8] -0.011 | [9] 0.257 | givinostat -0.042

TMEM260 (UniProt Q9NX78)
inactive: IRAK-1-4 Inhibitor I -0.068 | [1] 0.084 | [3] 0.169 | pinometostat -0.03 | [4] -0.034 | [7] 0.134 | [9] -0.011 | givinostat 0.079

TMEM147 (UniProt Q9BVK8)
inactive: ibrutinib 0.014 | [1] -0.094 | ralimetinib -0.127 | [2] -0.065 | [3] -0.106 | [10] -0.033 | [12] 0.056 | [4] -0.062 | [5] 0.029 | [11] 0.056 | [6] -0.069 | Nexturastat A -0.114 | vemurafenib 0.046 | [8] 0.091 | [9] -0.192 | givinostat -0.028 | barasertib 0.054

TMBIM1 (UniProt Q969X1)
inactive: ibrutinib 0.037 | [1] -0.126 | ralimetinib 0.264 | [2] 0.16 | [3] -0.066 | [10] -0.166 | [4] 0.089 | [5] 0.113 | [11] -0.055 | [6] 0.09 | Nexturastat A -0.02 | vemurafenib -0.132 | [8] 0.185 | [9] -0.134 | givinostat 0.004 | barasertib -0.057

Source: the supplement of paper PMC10849652
